Data taken from patent publication US20260125334A1, “TREATMENT PROCESS FOR PFAS-CONTAINING COMPOUNDS” (priority 2023, published 2026).

Columns and labels:
[1] = PFOS removal from low concentration aqueous standard solution by quaternary ammonium compound, LC-QTOF of centrate (Example 1); conditions: quat added at 0.2% by weight, standard solution 818 ppt
[2] = PFOA removal from low concentration aqueous standard solution by quaternary ammonium compound, LC-QTOF of centrate (Example 1); conditions: quat added at 0.2% by weight, standard solution 641 ppt
[3] = PFAS removal from synthetic wastewater containing 1% AFFF, LC/QTOF-MS (Example 2); conditions: 100 μL of 5% quat solution in 10 mL of 1% AFFF
[4] = Bromine in solution after treatment, XRF, ion exchange mechanism (Example 8)
[5] = PFAS removal from 1.25% AFFF synthetic wastewater, NMR of aqueous layer (Example 3); conditions: 1.25% AFFF solution; NMR detection limit 100 ppm PFAS

SMILES	PFOS concentration in the presence of dimethyl quaternary amine [1] [ppt]	PFOA concentration in the presence of dimethyl quaternary amine [2] [ppt]	PFAS in AFFF contaminated water after treatment [3]	Bromine in solution, blank (MilliQ water) after treatment ([4]; 2 g quat in 100 mL MilliQ water)	Bromine in solution, 1000 ppm PFOS sample after treatment ([4]; 2 g quat in 100 mL of 1000 ppm PFOS)	AFFF detection on NMR spectra after treatment [5]
CCCCCCCCCC[N+](C)(C)CCCCCCCCCC.[Br-] [Dimethyldidecylammonium bromide, dimethyldidecylammonium bromide]	615	628	–	–	–	–
CCCCCCCCCCCCCCCCCC[N+](C)(C)CCCCCCCCCCCCCCCCCC.[Br-] [Dimethyldioctadecylammonium bromide, dimethyldioctadecylammonium bromide]	<5	41	reduced the PFAS	No significant increase in bromine	increase in bromine	not detected
CCCCCCCCCCCCCC[N+](C)(C)CCCCCCCCCCCCCC.[Br-] [Dimethyldimyristylammonium bromide, dimethyldimyristylammonium bromide]	261	149	reduced the PFAS	–	–	not detected
CCCCCCCCCC[N+](C)(C)CCCCCCCCCC.[Cl-] [Dimethyldidecylammonium chloride]	–	–	reduced the PFAS	–	–	not detected
